Data source: PubChem BioAssay AID1259405 (NCATS, 2018)

- Purpose: 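Silenced genes that increase secreted GFP made by CHO cells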 (primary screen)
- System: Chinese hamster CHO-K1 ovary cells with stable secreted eGFP expression
- Reagents: single siRNA against mouse genes, 0.8 pmol siRNA per well (2 µl of 400 nM stock)
- Time to read-out: 3 days
- Measurement: 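Per-well intracellular GFP measured by laser scanning cytometry, plus viability from ATP luminescence, each relative to plate median of non-targeting control wells, in %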
- Scale: GFP, % of control: higher = more GFP per well, higher productivity; viability (ATP), % of control: higher = more viable cells (more ATP)
- Call rule: 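Called active when intracellular GFP, relative to negative control, is at or above 120%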
The deposit covers about 50,000 reagents; shown is a part drawn at random. About 4,000 of them (8%) were called active. 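Mouse siRNA library applied to hamster cells; one well for each siRNA.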 The numbers tell different reagents against one gene apart. Reagent sequences are not shown.

With knock-down of Fcrla (Fc receptor-like A) #1, the record shows GFP, % of control 85.6; viability (ATP), % of control 65.8; inactive.
Fcrla (Fc receptor-like A) #2 showed GFP, % of control 83; viability (ATP), % of control 67.5; inactive.
Fcrla (Fc receptor-like A) #3 gave GFP, % of control 78.9; viability (ATP), % of control 71.3; inactive.
For Pecr (peroxisomal trans-2-enoyl-CoA reductase) #1, the values are GFP, % of control 117; viability (ATP), % of control 65.8; inactive.
For Pecr (peroxisomal trans-2-enoyl-CoA reductase) #2, the values are GFP, % of control 42.9; viability (ATP), % of control 59.5; inactive.
After knock-down of Pecr (peroxisomal trans-2-enoyl-CoA reductase) #3 the results were GFP, % of control 36.6; viability (ATP), % of control 48.6; inactive.
For Htr1b (5-hydroxytryptamine (serotonin) receptor 1B) #1, the values are GFP, % of control 110; viability (ATP), % of control 73.1; inactive.
With knock-down of Htr1b (5-hydroxytryptamine (serotonin) receptor 1B) #2, the screen gave GFP, % of control 78.3; viability (ATP), % of control 81.7; inactive.
Silencing of Htr1b (5-hydroxytryptamine (serotonin) receptor 1B) #3 came out at: GFP, % of control 49.5; viability (ATP), % of control 54.5; inactive.
Silencing of Psmd8 (proteasome (prosome, macropain) 26S subunit, non-ATPase, 8) #1 gave: GFP, % of control 70; viability (ATP), % of control 102; inactive.
Psmd8 (proteasome (prosome, macropain) 26S subunit, non-ATPase, 8) #2 showed GFP, % of control 20.5; viability (ATP), % of control 4.76; inactive.
With knock-down of Psmd8 (proteasome (prosome, macropain) 26S subunit, non-ATPase, 8) #3, the screen gave GFP, % of control 11.2; viability (ATP), % of control 8.03; inactive.

Limited to “GFP, % of control”, for 2 of the entries above:
Htr1b (5-hydroxytryptamine (serotonin) receptor 1B) #1	110
Htr1b (5-hydroxytryptamine (serotonin) receptor 1B) #2	78.3

The list goes on.
With knock-down of Vmn1r214 (vomeronasal 1 receptor 214) #1, the record shows GFP, % of control 54.9; viability (ATP), % of control 55.3; inactive.
For Vmn1r214 (vomeronasal 1 receptor 214) #2, the values are GFP, % of control 116; viability (ATP), % of control 108; inactive.
Against Vmn1r214 (vomeronasal 1 receptor 214) #3 the deposit lists GFP, % of control 39.2; viability (ATP), % of control 48.7; inactive.
Depletion of F13a1 (coagulation factor XIII, A1 subunit) #1 gave: GFP, % of control 77.5; viability (ATP), % of control 76.4; inactive.
For F13a1 (coagulation factor XIII, A1 subunit) #2, the entry reads GFP, % of control 84.5; viability (ATP), % of control 71.4; inactive.
F13a1 (coagulation factor XIII, A1 subunit) #3 showed GFP, % of control 115; viability (ATP), % of control 98.7; inactive.
Vmn1r27 (vomeronasal 1 receptor 27) #1 gave GFP, % of control 66.1; viability (ATP), % of control 73.5; inactive.
With knock-down of Vmn1r27 (vomeronasal 1 receptor 27) #2, the record shows GFP, % of control 37.6; viability (ATP), % of control 55.5; inactive.
Depletion of Vmn1r27 (vomeronasal 1 receptor 27) #3 came out at: GFP, % of control 83.7; viability (ATP), % of control 89.6; inactive.
For Clk1 (CDC-like kinase 1) #1 the deposit lists GFP, % of control 123; viability (ATP), % of control 64.9; active.
Against Clk1 (CDC-like kinase 1) #2, the values are GFP, % of control 111; viability (ATP), % of control 60.3; inactive.
With knock-down of Clk1 (CDC-like kinase 1) #3, the record shows GFP, % of control 95.3; viability (ATP), % of control 85.1; inactive.
Depletion of Ssx2ip (SSX family member 2 interacting protein) #1 resulted in: GFP, % of control 51; viability (ATP), % of control 53.6; inactive.
Ssx2ip (SSX family member 2 interacting protein) #2 scored GFP, % of control 88.1; viability (ATP), % of control 100; inactive.
With knock-down of Ssx2ip (SSX family member 2 interacting protein) #3, the record shows GFP, % of control 104; viability (ATP), % of control 80.5; inactive.
